Data taken from patent US20130190278A1, “Compounds for the Treatment/Prevention of Ocular Inflammatory Diseases” (Laboratoires Fournier SA, priority 2010, published 2013).
At least one compound was matched to its structure with a doubt left.

Test system: dry eye induced by scopolamine and extractor hood
Experiment: Dry eye model, stability of tear film (TBUT)
Format: in vivo, mice
Settings: dexamethasone instillations; effect did not continue on day 21

## C[C@@H]1C[C@H]2[C@@H]3CCC4=CC(=O)C=C[C@]4(C)[C@@]3(F)[C@@H](O)C[C@]2(C)[C@@]1(O)C(=O)CO [dexamethasone]
  Stability of the tear film (tear film rupture test): modest effect
